# Reference: US20230203098A1, “HUMAN TRANSFERRIN RECEPTOR BINDING PEPTIDE” (priority 2020, published 2023)
# Results are given in words; binding and its absence hold for the method and conditions named. Some entries that bind do so weakly or less than the wild type.
# Biological target: human transferrin receptor (hTfR) (human) (UniProt P02786)
# Assay: SPR; grade B: KD >=1 nM, <100 nM
row,binding,Binder
1,binds,AVFVWNYYIIREYYC (14 MeY; cyclic 1-15 thioether) [JCR_hTfR_000894_E12_Re180111]
2,binds,AVFVWNYYIYRRYYC (3 MePhe; 14 MeTyr; C-term PEG12c; cyclic 1-15 thioether) [894_3m_10Y]
3,binds,AVFVWNYYIIRRYYC (3 MeF; 14 MeY; C-term G-KCOpipzaa-G-G-S-S-C(AcNMe); cyclic 1-15 thioether) [894_3m_GLinker10(AcNMe)]
4,binds,AVFVWNYYIIRRYYC (3 MeF; 14 MeY; C-term G-de-de-G-S-S-C(AcNMe); cyclic 1-15 thioether) [894_3m_GLinker5(AcNMe)]
5,binds,AVFVWNYYIIARYYC (3 MeF; 14 MeY; C-term de; cyclic 1-15 thioether) [894_variant_097]
6,binds,AVFVWNYYIIRRYYC (3 MeF; 14 MeY; C-term G-G-G-KCOpipzaa-S-S-C(AcNMe); cyclic 1-15 thioether) [894_3m_GLinker12(AcNMe)]
7,binds,AVFVWNYYIIRRAYC (3 MePhe; 14 MeTyr; C-term PEG12c; cyclic 1-15 thioether) [894_3m_13A]
8,binds,AVFVWNYYIIRRYYC (3 MeF; 14 MeY; C-term G-de-de-de-G-dk; cyclic 1-15 thioether) [894_var.184]
9,binds,AVFVWNYYIIRRYAC (3 MePhe; C-term PEG12c; cyclic 1-15 thioether) [894_3m_14A]
10,binds,AVFVWNYYIIRRYYC (3 MeF; 14 MeY; C-term G-K; cyclic 1-15 thioether) [894_variant_218]
11,binds,ARFVWNYYIIRRYYC (14 MeY; cyclic 1-15 thioether) [JCR_hTfR_000894_R2]
12,binds,GVFVWNYYIIRRYYC (3 MePhe; 14 MeTyr; C-term PEG12c; cyclic 1-15 thioether) [894 _3m _1G]
13,binds,AVFVWNYYIIRRKYC (14 MeY; cyclic 1-15 thioether) [JCR_hTfR_000894_K13]
14,binds,AVFVWNYYIIRRRYC (14 MeY; cyclic 1-15 thioether) [JCR_hTfR_000894_R13]
15,binds,AVFVWNYYIIERYYC (14 MeY; cyclic 1-15 thioether) [JCR_hTfR_000894_E11_Re180111]
16,binds,AVFVWNYYIIRRYYC (3 MeF; 14 MeY; C-term G-G-G-KCOmeglumine-S-S-C(AcNMe); cyclic 1-15 thioether) [894_3m_GLinker20(AcNMe)]
17,binds,SVFVWNYYIIRRYYC (3 MePhe; 14 MeTyr; C-term PEG12c; cyclic 1-15 thioether) [894 _3m _1S]
18,binds,AEFVWNYYIIRRYYC (14 MeY; cyclic 1-15 thioether) [JCR_hTfR_000894_E2]
19,binds,AVFVWNYYIIRRYYC (3 MeF; 14 MeY; C-term G-G-KCOpipzaa-G-S-S-C(AcNMe); cyclic 1-15 thioether) [894_3m_GLinker11(AcNMe)]
20,binds,AVFVWNYYIVPRNC (C-term PEG11-K-FITC; cyclic 1-14 thioether) [JCR_hTfR_000687_PEG11_K(FITC)]
21,binds,AVFVWNWYIIRRYYC (3 MePhe; 14 MeTyr; C-term PEG12c; cyclic 1-15 thioether) [894_3m_7W]
22,binds,AVFVWNYYIIRRYYC (3 MeF; 14 MeY; C-term G-G-G-G-S-S-C(AcNMe); cyclic 1-15 thioether) [894_3m_G4S2C(AcNMe)]
23,binds,AVFVWNYYIIRRYYC (3 MeF; 14 MeY; C-term G-KCOpipzaa-de-de-S-S-C(AcNMe); cyclic 1-15 thioether) [894_3m_GLinker21(AcNMe)]
24,binds,AVFVWNYYIIRRYYC (3 MeF; 14 MeY; C-term G-KCOmeglumine-G-de-S-S-C(AcNMe); cyclic 1-15 thioether) [894_3m_GLinker13(AcNMe)]

row,binding,Binder
1,binds,AVFVWDYYIIRRYYC (3 MePhe; 14 MeTyr; C-term PEG12c; cyclic 1-15 thioether) [894_3m_6D]
2,binds,AVFVWNYYIIRRYYC (3 MeF; 5 MeW; 14 MeY; cyclic 1-15 thioether) [894_v03]
3,binds,AVFVWNYYIIRRYYC (3 MeF; 14 MeY; C-term G-KCOmeglumine-G-G-S-S-C(AcNMe); cyclic 1-15 thioether) [894_3m _GLinker7(AcNMe)]
4,binds,AVFVWNYYIIRRYRC (3 MePhe; C-term PEG12c; cyclic 1-15 thioether) [894_3m_14R]
5,binds,AVFVWNYYIIRRYYC (3 MeF; 14 MeY; C-term G-de-G-KCOpipzaa-S-S-C(AcNMe); cyclic 1-15 thioether) [894_3m_GLinker15(AcNMe)]
6,binds,AVFVWNYYIIRRYYC (3 MePhe; 8 MeTyr; 14 MeTyr; C-term PEG12c; cyclic 1-15 thioether) [894_3m_8m]
7,binds,AVFVWNFYIIRRYYC (3 MePhe; 14 MeTyr; C-term PEG12c; cyclic 1-15 thioether) [894_3m_7F]
8,binds,AVFVWNYYIARRYYC (3 MePhe; 14 MeTyr; C-term PEG12c; cyclic 1-15 thioether) [894_3m_10A]
9,binds,AVFVWNYYIIRRYYC (3 MeF; 14 MeY; C-term G-OH; cyclic 1-15 thioether) [894_3m_G]
10,binds,AVFVWNYYIIRRYYC (3 MeF; 14 MeY; C-term MeG-MeG-MeG; cyclic 1-15 thioether) [894_3m_MeG3]
11,binds,AVFVWNYYIIRRYYC (3 MeF; 14 MeY; C-term G-G-de-KCOpipzaa-S-S-C(AcNMe); cyclic 1-15 thioether) [894_3m_GLinker16(AcNMe)]
12,binds,AVFVWNYYIIRAYYC (14 MeY; cyclic 1-15 thioether) [JCR_hTfR_000894_A12]
13,binds,AVFVWNYYIIRRYYC (3 MeF; 14 MeY; C-term G-G-KCOpipzaa-de-S-S-C(AcNMe); cyclic 1-15 thioether) [894_3m_GLinker9(AcNMe)]
14,binds,AVFVWNYYIIKRYYC (3 MeF; 11 MeK; 14 MeY; cyclic 1-15 thioether) [JCR__hTfR_000894_3Me_11MeK]
15,binds,AVFVWNYYIIKRYYC (11 MeK; 14 MeY; cyclic 1-15 thioether) [JCR_hTfR_000894_11MeK]
16,binds,EVFVWNYYIIRRYYC (14 MeY; C-term PEG12-Hydrazide; cyclic 1-15 thioether) [hTfR_894_E1_PEG12_(Hydrazide)]
17,binds,AVFVWNYYIVPREC (C-term PEG11-K-FITC; cyclic 1-14 thioether) [JCR_hTfR_100019_PEG11_K(FITC)]
18,binds,AVFVWNYYIIRKYYC (14 MeY; cyclic 1-15 thioether) [JCR_hTfR_000894_K12]
19,binds,AVFVWNYYIIRRYYC (3 MeF; 14 MeY; C-term G-PEG4c-KN3; cyclic 1-15 thioether) [894_3rn_G_short_Azi]
20,binds,AVFVWNYYIIRRYYC (3 MeF; 14 MeY; C-term G-G-KCOmeglumine-de-S-S-C(AcNMe); cyclic 1-15 thioether) [894_3m_GLinker14(AcNMe)]
21,binds,AVFVWNYYIIRRYYC (3 MeF; 14 MeY; C-term G-KN3; cyclic (cell for position 15 blank in the table)) [894_3m_G_Azi]
22,binds,AVWVWNYFIIPRHC (C-term PEG11-K-FITC; cyclic 1-14 thioether) [JCR_hTfR_000837_PEG11_K(FITC)]
23,binds,AVFVWNYYIIRREYC (14 MeY; cyclic 1-15 thioether) [JCR_hTfR_000894_E13]
24,binds,AVFVWNYYIVPRWC (13 MeW; C-term PEG11-K-FITC; cyclic 1-14 thioether) [JCR_hTfR_100016_PEG11_K(FITC)]

row,binding,Binder
1,binds,AVFVWNAYIIRRYYC (3 MePhe; 14 MeTyr; C-term PEG12c; cyclic 1-15 thioether) [894_3m_7A]
2,binds,AVFVWNYYIIRRYYC (3 MeF; 14 MeY; C-term G-PEG12c-KN3; cyclic 1-15 thioether) [894_3m_G_long_Azi]
3,binds,AVFVWNYYIIRRYYC (3 MeF; 14 MeY; C-term G-de-G-KCOmeglumine-S-S-C(AcNMe); cyclic 1-15 thioether) [894_3m_GLinker17(AcNMe)]
4,binds,AVFVWNYYIIRRYYC (3 MeF; 14 MeY; C-term G-KCOpipzaa-G-de-S-S-C(AcNMe); cyclic 1-15 thioether) [894_3m_GLinker8(AcNMe)]
5,binds,AVFVWNYYIIRRYYC (3 MeF; 14 MeY; C-term G-G-KCOmeglumine-G-S-S-C(AcNMe); cyclic 1-15 thioether) [894_3m_GLinker19(AcNMe)]
6,binds,AVFVWNYYIRRRYYC (14 MeY; cyclic 1-15 thioether) [JCR_hTfR_000894_R10]
7,binds,AVFVWNYYIERRYYC (14 MeY; cyclic 1-15 thioether) [JCR_hTfR_000894_E10]
8,binds,AVFVWNYYIIKRYYC (3 MeF; 5 MeW; 14 MeY; cyclic 1-15 thioether) [JCR_hTfR_000894_3MeF_5meW_11K]
9,binds,AVFVWNYYIVPRDC (C-term PEG11-K-FITC; cyclic 1-14 thioether) [JCR_hTfR_000692_PEG11_K(FITC)]
10,binds,AVFVWNYYIIARYYC (14 MeY; cyclic 1-15 thioether) [JCR_hTfR_000894_A11]
11,binds,AVFVWNYYIIYRYYC (3 MePhe; 14 MeTyr; C-term PEG12c; cyclic 1-15 thioether) [894_3m_11Y]
12,binds,AVFVWNYYIIRRYYC (3 MeF; 14 MeY; C-term G-de-de-de-S-S-C(AcNMe); cyclic 1-15 thioether) [894_3m_GLinker4(AcNMe)]
13,binds,AVFVWNYYIIKRYYC (3 MeF; 14 MeY; cyclic 1-15 thioether) [JCR_hTfR_000894_3MeF_11K]
14,binds,AVFVWNYYIIRRYYC (3 MeF; 14 MeY; cyclic 1-15 thioether) [894_v01]
15,binds,AVFVWNYYIIRRYYC (3 MeF; 14 MeY; C-term G-de-KCOpipzaa-de-G-dk; cyclic 1-15 thioether) [894_var.185]
16,binds,AVFVWNYYIIRRYYC (3 MeF; 14 MeY; C-term G-G-G-de-G-de-G-dk(Maleimide); cyclic 1-15 thioether) [894_3rn_Linke03_dk(Mal)]
17,binds,AFFVWNYYIIRRYYC (3 MePhe; 14 MeTyr; C-term PEG12c; cyclic 1-15 thioether) [894_3m_2F]
18,binds,AVFVWNYYIIRRYYC (3 MeF; 14 MeY; C-term G-de-de-de-de-S-C(AcNMe); cyclic 1-15 thioether) [894_3rn_GLinker24]
19,binds,AVFVWNYYIIRRYYC (3 MeF; 14 MeY; C-term PEG12c; cyclic 1-15 thioether) [894_v01_PEG12]
20,binds,AVFVWNYYIIRRYYC (3 MeF; 14 MeY; C-term G-G-G-S-G-S-G-dk(Maleimide); cyclic 1-15 thioether) [894_3rn_Linke01_dk(Mal)]
21,binds,AVFVWNYYIIRRYYC (3 MeF; 14 MeY; C-term G-KN3; cyclic 1-15 thioether) [894_3m_G_Azi_Re200923]
22,binds,AVFVWNYYIIRRYYC (3 MeF; 14 MeY; C-term G-de-KCOpipzaa-de-S-S-C(AcNMe); cyclic 1-15 thioether) [894_3m_GLinker22(AcNMe)]
23,binds,AKFVWNYYIIRRYYC (14 MeY; cyclic 1-15 thioether) [JCR_hTfR_000894_K2]
24,binds,AVFVWNYYIIRRYYC (3 MeF; 14 MeY; C-term G-G-de-KCOmeglumine-S-S-C(AcNMe); cyclic 1-15 thioether) [894_3m_GLinker18(AcNMe)]
